PubChem BioAssay AID686938 – Drosophila RNAi Screening Center, 2013
Test: 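Knock-downs reducing store-operated calcium influx in Drosophila cells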 (primary screen). System: Drosophila S2R+ cells. Knock-down reagent: long dsRNA against Drosophila genes, about 0.25 µg dsRNA per well, roughly 10,000 cells. Timing: 5 days of knock-down before the calcium assay. Challenge: thapsigargin (SERCA pump blocker) to empty calcium stores; entry signal taken 4 min after adding it. Detection: 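Per-well fluo-4 fluorescence in two replicates, unnormalised, measured in resting cells and 4 min after store depletion by the SERCA blocker thapsigargin; ratio of the two present in few wells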. Direction: calcium entry signal: higher = stronger calcium signal after store depletion; entry to resting ratio: higher = more calcium entry relative to resting level; resting calcium signal: higher = higher resting calcium signal. Units: calcium entry signal in fluorescence units; resting calcium signal in fluorescence units. Rule for the call: 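Hit if the duplicate-averaged plate z-score for entry over resting signal is under −3; wells with weak total dye signal (Fmax z < −2) or more than 5 off-targets removed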. Calls: active = strongly reduced calcium entry; inactive = no strong reduction.
In all, the deposit lists about 23,000 reagents; below is an unselected part of those with a known target gene and a result. Of all reagents, 75 (0.33%) got an active call. 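Raw plate signals without normalisation; calls rest on plate z-scores that were not deposited; ratio present for only 364 wells.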 No sequences are given here. The record does not give: the dose of the treatment.

For slim [DRSC06921], what does the deposit list?
calcium entry signal, replicate 1: 3.94e7; calcium entry signal, replicate 2: 4.08e7; resting calcium signal, replicate 1: 1.82e7; resting calcium signal, replicate 2: 2.01e7; activity call: inactive

With CG4763 [DRSC04009], what was measured?
calcium entry signal, replicate 1: 2.00e7; calcium entry signal, replicate 2: 3.45e7; resting calcium signal, replicate 1: 1.11e7; resting calcium signal, replicate 2: 1.48e7; activity call: inactive

With CG4763 [DRSC04487], what does the deposit list?
calcium entry signal, replicate 1: 4.98e7; calcium entry signal, replicate 2: 5.58e7; resting calcium signal, replicate 1: 2.44e7; resting calcium signal, replicate 2: 2.49e7; activity call: inactive

What did the screen give for Ku80 [DRSC02699]?
calcium entry signal, replicate 1: 4.81e7; calcium entry signal, replicate 2: 2.83e7; resting calcium signal, replicate 1: 2.11e7; resting calcium signal, replicate 2: 1.44e7; activity call: inactive

How did the screen score CAH4 [DRSC22433]?
calcium entry signal, replicate 1: 3.36e7; calcium entry signal, replicate 2: 3.07e7; resting calcium signal, replicate 1: 1.64e7; resting calcium signal, replicate 2: 1.42e7; activity call: inactive

With Sp7 [DRSC15461], how do the results read?
calcium entry signal, replicate 1: 3.93e7; calcium entry signal, replicate 2: 2.87e7; resting calcium signal, replicate 1: 1.96e7; resting calcium signal, replicate 2: 1.54e7; activity call: inactive

What is on record for Secp43 [DRSC00454]?
calcium entry signal, replicate 1: 2.83e7; calcium entry signal, replicate 2: 2.53e7; resting calcium signal, replicate 1: 1.41e7; resting calcium signal, replicate 2: 1.17e7; activity call: inactive

For Rab35 [DRSC20691], what was measured?
calcium entry signal, replicate 1: 8.29e7; calcium entry signal, replicate 2: 7.23e7; resting calcium signal, replicate 1: 5.52e7; resting calcium signal, replicate 2: 5.16e7; activity call: inactive

What is on record for CG11560 [DRSC09843]?
calcium entry signal, replicate 1: 4.83e7; calcium entry signal, replicate 2: 4.00e7; resting calcium signal, replicate 1: 3.40e7; resting calcium signal, replicate 2: 1.77e7; activity call: inactive

For Ugalt [DRSC18467], what does the deposit list?
calcium entry signal, replicate 1: 4.84e7; calcium entry signal, replicate 2: 2.72e7; entry to resting ratio: 2.4; resting calcium signal, replicate 1: 2.03e7; resting calcium signal, replicate 2: 1.28e7; activity call: inactive

With drosha [DRSC07607], how do the results read?
calcium entry signal, replicate 1: 3.05e7; calcium entry signal, replicate 2: 2.94e7; resting calcium signal, replicate 1: 1.27e7; resting calcium signal, replicate 2: 1.23e7; activity call: inactive

How did the screen score B-H2 [DRSC19335]?
calcium entry signal, replicate 1: 2.49e7; calcium entry signal, replicate 2: 2.01e7; resting calcium signal, replicate 1: 1.64e7; resting calcium signal, replicate 2: 1.20e7; activity call: inactive

Which result is listed for B-H2 [DRSC23012]?
calcium entry signal, replicate 1: 4.27e7; calcium entry signal, replicate 2: 3.88e7; resting calcium signal, replicate 1: 1.83e7; resting calcium signal, replicate 2: 1.65e7; activity call: inactive

Which result is listed for CG30355 [DRSC21958]?
calcium entry signal, replicate 1: 3.55e7; calcium entry signal, replicate 2: 6.75e7; resting calcium signal, replicate 1: 1.77e7; resting calcium signal, replicate 2: 3.09e7; activity call: inactive

With CG8785 [DRSC07266], how do the results read?
calcium entry signal, replicate 1: 4.65e7; calcium entry signal, replicate 2: 4.48e7; resting calcium signal, replicate 1: 1.89e7; resting calcium signal, replicate 2: 1.96e7; activity call: inactive

What is on record for mmm [DRSC10208]?
calcium entry signal, replicate 1: 3.88e7; calcium entry signal, replicate 2: 7.07e7; resting calcium signal, replicate 1: 1.80e7; resting calcium signal, replicate 2: 2.81e7; activity call: inactive

What did the screen give for CG34194 [DRSC05666]?
calcium entry signal, replicate 1: 3.20e7; calcium entry signal, replicate 2: 4.84e7; resting calcium signal, replicate 1: 1.52e7; resting calcium signal, replicate 2: 2.00e7; activity call: inactive

For Atg4a [DRSC00656], how do the results read?
calcium entry signal, replicate 1: 4.50e7; resting calcium signal, replicate 1: 2.29e7; activity call: inactive

For CG31601 [DRSC03678], what was measured?
calcium entry signal, replicate 1: 2.83e7; calcium entry signal, replicate 2: 5.59e7; resting calcium signal, replicate 1: 1.48e7; resting calcium signal, replicate 2: 2.22e7; activity call: inactive

For shakB [DRSC20420], how do the results read?
calcium entry signal, replicate 1: 3.90e7; calcium entry signal, replicate 2: 3.44e7; resting calcium signal, replicate 1: 1.94e7; resting calcium signal, replicate 2: 1.54e7; activity call: inactive

With shakB [DRSC20423], what does the deposit list?
calcium entry signal, replicate 1: 2.92e7; calcium entry signal, replicate 2: 3.62e7; resting calcium signal, replicate 1: 1.68e7; resting calcium signal, replicate 2: 1.80e7; activity call: inactive

Which result is listed for shakB [DRSC20492]?
calcium entry signal, replicate 1: 6.26e7; calcium entry signal, replicate 2: 5.56e7; resting calcium signal, replicate 1: 2.69e7; resting calcium signal, replicate 2: 2.21e7; activity call: inactive

What did the screen give for shakB [DRSC20585]?
calcium entry signal, replicate 1: 5.39e7; calcium entry signal, replicate 2: 5.22e7; resting calcium signal, replicate 1: 2.48e7; resting calcium signal, replicate 2: 2.44e7; activity call: inactive

For shakB [DRSC21445], how do the results read?
calcium entry signal, replicate 1: 3.73e7; calcium entry signal, replicate 2: 3.33e7; resting calcium signal, replicate 1: 2.34e7; resting calcium signal, replicate 2: 1.45e7; activity call: inactive

For shakB [DRSC22817], what does the deposit list?
calcium entry signal, replicate 1: 3.15e7; calcium entry signal, replicate 2: 4.36e7; resting calcium signal, replicate 1: 1.61e7; resting calcium signal, replicate 2: 2.09e7; activity call: inactive
